Measurements: patent publication US6852692B1, “Composition for promoting passive extension of bladder smooth muscle” (Shionogi & Co., Ltd., priority 1999, dated 2005)
At least one structure is not confirmed: it was looked up by name or label, or the drawing left a doubt.

System: urinary bladder strips
Test: Static tension and acetylcholine-induced contraction of rat urinary bladder strips (isometric transducer)
Conditions: 30 nM to 1 mM acetylcholine in Tyrode's solution, FIG. 3
Protocol: Urinary bladder strips were prepared in a manner similar to that of Example 1. The urinary bladder sections were attached to an isometric transducer FD pickup TB611T (manufactured by Nippon Kohden Corporation) in Tyrode's solution. Contraction of the urinary bladder was continuously measured. Firstly, 30 nM to 1 mM acetylcholine was added to the Tyrode's solution. […] In FIG. 3, the vertical axis indicates tension (unit: g), while the horizontal axis indicates time. Contraction induced by acetylcholine was confirmed, followed by washing out acetylcholine. Thereafter, 100 nM adrenomedullin was added to the Tyrode's solution. […] Further, 30 nM to 1 mM acetylcholine was added to the Tyrode's solution. As a result, recontraction of the urinary bladder occured.

CC(=O)OCC[N+](C)(C)C [acetylcholine, reference compound]
contraction of the urinary bladder on addition of acetylcholine: contraction of the urinary bladder occurred
